{"source": "paper PMC6679365", "molecular_target": "CsFT, yeast two-hybrid fusion (cucumber (Cucumis sativus L.)) (UniProt B9ZYL0)", "assay": "two-hybrid; pairwise tests; full-length coding sequences in pGADT7 (prey) or pGBKT7 (bait), yeast strain AH109, Matchmaker GAL4 Two-Hybrid System 3", "note": "No constants are given. Whether binding was seen depends on the method and setting. Binding calls can cover weak binding; strength is not graded here."}
{"substance": "CsNOT2a (cucumber homolog of Negative on TATA less2), yeast two-hybrid fusion (from UniProt A0A0A0KG20)", "values": [{"measurement": "binding", "result": "binds"}]}
